These are yes or no findings as the source states them, for the method shown. Binding seen in cells or lysates may run through a third protein. Some entries that bind do so weakly or less than the wild type.
Assays:
[1] = target: full length FLAG-HDAC6 (UniProt Q9UBN7); experiment: co-IP; HEK cells co-transfected with FLAG-HDAC6 and tagged p62 constructs; Triton Lysis Buffer; HDAC6 immunoprecipitated with FLAG antibody; Western blot for myc- or HA-tagged p62
[2] = target: GST-tagged p62 (SQSTM1/p62, sequestosome 1) (UniProt Q13501); experiment: pull-down; 10 µg GST-p62 on glutathione beads incubated overnight at 4°C with lysates of HEK cells expressing HA-HDAC6; washed 3 times with NETN buffer; Western blot with anti-HA and anti-GST; only the target purified

Chains of the proteins cited; added tags and fusions are not shown.
UniProt Q9UBN7: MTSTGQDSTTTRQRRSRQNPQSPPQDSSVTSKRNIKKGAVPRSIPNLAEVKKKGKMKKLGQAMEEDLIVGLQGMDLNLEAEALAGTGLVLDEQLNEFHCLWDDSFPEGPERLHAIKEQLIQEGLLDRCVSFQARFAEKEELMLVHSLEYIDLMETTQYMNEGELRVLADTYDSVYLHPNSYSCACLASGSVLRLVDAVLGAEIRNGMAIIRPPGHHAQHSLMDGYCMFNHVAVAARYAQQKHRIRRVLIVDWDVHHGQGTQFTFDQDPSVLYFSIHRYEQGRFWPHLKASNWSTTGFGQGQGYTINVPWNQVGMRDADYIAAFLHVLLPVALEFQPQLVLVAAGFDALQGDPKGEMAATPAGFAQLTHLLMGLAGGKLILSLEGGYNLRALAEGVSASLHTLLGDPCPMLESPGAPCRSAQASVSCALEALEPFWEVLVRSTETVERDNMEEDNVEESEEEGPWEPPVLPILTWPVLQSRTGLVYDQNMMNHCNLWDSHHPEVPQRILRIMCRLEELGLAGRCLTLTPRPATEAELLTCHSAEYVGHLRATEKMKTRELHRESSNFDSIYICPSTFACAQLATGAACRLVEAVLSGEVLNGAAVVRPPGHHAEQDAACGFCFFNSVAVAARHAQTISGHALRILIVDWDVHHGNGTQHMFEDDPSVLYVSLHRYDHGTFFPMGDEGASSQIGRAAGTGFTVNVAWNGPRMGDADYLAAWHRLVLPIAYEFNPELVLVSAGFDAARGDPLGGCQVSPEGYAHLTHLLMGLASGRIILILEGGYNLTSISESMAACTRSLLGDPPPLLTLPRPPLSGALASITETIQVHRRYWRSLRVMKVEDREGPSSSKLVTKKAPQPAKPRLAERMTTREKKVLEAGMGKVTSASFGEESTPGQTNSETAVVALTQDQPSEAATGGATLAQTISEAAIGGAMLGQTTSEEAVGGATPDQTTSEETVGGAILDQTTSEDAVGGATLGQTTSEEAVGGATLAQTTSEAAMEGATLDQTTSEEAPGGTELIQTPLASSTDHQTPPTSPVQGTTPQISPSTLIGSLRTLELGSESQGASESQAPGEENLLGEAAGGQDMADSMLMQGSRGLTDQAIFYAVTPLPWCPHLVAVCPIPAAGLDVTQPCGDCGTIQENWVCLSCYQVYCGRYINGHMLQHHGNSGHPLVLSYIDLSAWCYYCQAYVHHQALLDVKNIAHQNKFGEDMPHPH

binding [1]	binding [2]	Substance
binds		myc-tagged full length p62 (from UniProt Q13501 1-440)
	binds	HA-tagged HDAC6 (histone deacetylase 6) (from UniProt Q9UBN7 1-1215) (enzyme)

Reference: PMC3785417
